The text below walks through data of PMC3934973.

Results are given in words; binding and its absence hold for the method and conditions named. In cells and extracts the contact can be indirect. Binding can be weak; no strength is given.

The test deals with AtSar1 (Arabidopsis thaliana (endogenous in Col-0 seedlings)). Nature of the test: co-IP; Triton X-100 extract of 15-day-old A. thaliana Col-0 seedlings (20 mM HEPES pH 6.8, 125 mM potassium acetate, 1 mM EDTA, 1% Triton X-100); immunoprecipitated overnight at 4 °C with anti-AtSar1 serum and protein A/protein G/γ-Bind-Sepharose beads; Western blot with anti-AtSar1, anti-AtSec12, anti-AtSec13 and anti-AtSec23 sera.

B1: AtSec12 (protein, UniProt Q39221 1-393)
chain: MANQSTETNQPSNMQTYGVPIYAADWIPEVDVRSKIIMDPEKSEDDDESSSSSSSSRSCIVLSGGGGEGRSGISNVILICRVDLNTNSLSEQPLGRLVVGSDLPYRMAVHPREGGLICALPNSCKLFHWEDIMSREDNQAGESEEVIKELRDVGQQLALAFNPEGSVLAAGAEDGTLRVFKWPSMNTLLNESQAHSSVKCLTFSESGQFLVSLGGPVCRVWDVNASAAVASLSKEKDEMFASCRFSVDSAGNEVLYIAANTERGGSIITCDTKLWKRKWSKPIKKNSISAFNVSADGKLLAIGTLEGDVLILESTRMQTIQVVKKAHLGLVTALTFSPDSRGLVSVSFDSRARLTMIEQKGDKPGVRWWLLVLLIVLLYVVAYYYMKAKGIIP
For B1, the binding result is “binds”.
